Measured values as given in the supplement of paper PMC7661543.
Differences between knockout arms are mostly noise.

Tested on: BT-20
Experiment: relative cell number vs DMSO control (72 h) (% of DMSO); higher = less growth inhibition (more cells)
Protocol: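 QMAP-Seq: a pool of 5 breast cancer cell lines (ZR-75-1, SKBR3, HCC-38, MDA-MB-231, BT-20), each carrying 12 doxycycline-inducible Cas9 sgRNA perturbations (11 knockouts plus non-targeting sgNT), was treated with compounds for 72 h at four 10-fold doses (10 nM-10 uM or 1 nM-1 uM range). Barcodes were amplified and sequenced, and cell number was interpolated from 293T spike-in standard curves. The result is expressed as % of the median of DMSO wells. Two biological replicates.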

O=P1(NCCCl)OCCCN1CCCl (configuration not stated) [Ifosfamide]
Settings	relative cell number
sgRNA knockout: sgATF3, 10 nM	91.4
sgRNA knockout: sgATF3, 100 nM	87.8
sgRNA knockout: sgATF3, 1000 nM	102
sgRNA knockout: sgATF3, 10000 nM	96.1
sgRNA knockout: sgATF4, 10 nM	89.9
sgRNA knockout: sgATF4, 100 nM	93.8
sgRNA knockout: sgATF4, 1000 nM	109
sgRNA knockout: sgATF4, 10000 nM	104
sgRNA knockout: sgATF6, 10 nM	73.49
sgRNA knockout: sgATF6, 100 nM	106
sgRNA knockout: sgATF6, 1000 nM	96.3
sgRNA knockout: sgATF6, 10000 nM	94.2
sgRNA knockout: sgATG7, 10 nM	91
sgRNA knockout: sgATG7, 100 nM	101
sgRNA knockout: sgATG7, 1000 nM	106
sgRNA knockout: sgATG7, 10000 nM	95.8
sgRNA knockout: sgERN1, 10 nM	100
sgRNA knockout: sgERN1, 100 nM	87.8
sgRNA knockout: sgERN1, 1000 nM	97.4
sgRNA knockout: sgERN1, 10000 nM	92.1
sgRNA knockout: sgHSF1, 10 nM	93.7
sgRNA knockout: sgHSF1, 100 nM	99.1
sgRNA knockout: sgHSF1, 1000 nM	117
sgRNA knockout: sgHSF1, 10000 nM	93.1
sgRNA knockout: sgHSF2, 10 nM	106
sgRNA knockout: sgHSF2, 100 nM	98
sgRNA knockout: sgHSF2, 1000 nM	93.9
sgRNA knockout: sgHSF2, 10000 nM	92.8
sgRNA knockout: sgKEAP1, 10 nM	100
sgRNA knockout: sgKEAP1, 100 nM	95.5
sgRNA knockout: sgKEAP1, 1000 nM	99.1
sgRNA knockout: sgKEAP1, 10000 nM	88.7
sgRNA knockout: sgNFE2L2, 10 nM	79.2
sgRNA knockout: sgNFE2L2, 100 nM	102
sgRNA knockout: sgNFE2L2, 1000 nM	110
sgRNA knockout: sgNFE2L2, 10000 nM	84.6
sgRNA knockout: sgSLC35F2, 10 nM	89.5
sgRNA knockout: sgSLC35F2, 100 nM	96.9
sgRNA knockout: sgSLC35F2, 1000 nM	127
sgRNA knockout: sgSLC35F2, 10000 nM	93.8
sgRNA knockout: sgXBP1, 10 nM	95.46
sgRNA knockout: sgXBP1, 100 nM	102
sgRNA knockout: sgXBP1, 1000 nM	106
sgRNA knockout: sgXBP1, 10000 nM	99.7

O=C1NC(=O)[C@@H](c2cn3c4c(cccc24)CCC3)[C@@H]1c1c[nH]c2ccccc12 [Tivantinib]
Settings	relative cell number
sgRNA knockout: sgATF3, 10 nM	91.1
sgRNA knockout: sgATF3, 100 nM	77.1
sgRNA knockout: sgATF3, 1000 nM	47.9
sgRNA knockout: sgATF3, 10000 nM	36
sgRNA knockout: sgATF4, 10 nM	92.5
sgRNA knockout: sgATF4, 100 nM	89.1
sgRNA knockout: sgATF4, 1000 nM	52.3
sgRNA knockout: sgATF4, 10000 nM	34.1
sgRNA knockout: sgATF6, 10 nM	89.4
sgRNA knockout: sgATF6, 100 nM	98.1
sgRNA knockout: sgATF6, 1000 nM	43.6
sgRNA knockout: sgATF6, 10000 nM	35.29
sgRNA knockout: sgATG7, 10 nM	87.4
sgRNA knockout: sgATG7, 100 nM	83.1
sgRNA knockout: sgATG7, 1000 nM	54.9
sgRNA knockout: sgATG7, 10000 nM	34.1
sgRNA knockout: sgERN1, 10 nM	92.5
sgRNA knockout: sgERN1, 100 nM	92.7
sgRNA knockout: sgERN1, 1000 nM	46.3
sgRNA knockout: sgERN1, 10000 nM	30.2
sgRNA knockout: sgHSF1, 10 nM	92.2
sgRNA knockout: sgHSF1, 100 nM	89.3
sgRNA knockout: sgHSF1, 1000 nM	47.8
sgRNA knockout: sgHSF1, 10000 nM	29.6
sgRNA knockout: sgHSF2, 10 nM	84.3
sgRNA knockout: sgHSF2, 100 nM	86.5
sgRNA knockout: sgHSF2, 1000 nM	53.2
sgRNA knockout: sgHSF2, 10000 nM	35.3
sgRNA knockout: sgKEAP1, 10 nM	87.1
sgRNA knockout: sgKEAP1, 100 nM	84.6
sgRNA knockout: sgKEAP1, 1000 nM	41.53
sgRNA knockout: sgKEAP1, 10000 nM	33.7
sgRNA knockout: sgNFE2L2, 10 nM	88.41
sgRNA knockout: sgNFE2L2, 100 nM	112
sgRNA knockout: sgNFE2L2, 1000 nM	55.3
sgRNA knockout: sgNFE2L2, 10000 nM	35.6
sgRNA knockout: sgSLC35F2, 10 nM	93.9
sgRNA knockout: sgSLC35F2, 100 nM	90.6
sgRNA knockout: sgSLC35F2, 1000 nM	46.1
sgRNA knockout: sgSLC35F2, 10000 nM	35
sgRNA knockout: sgXBP1, 10 nM	87.6
sgRNA knockout: sgXBP1, 100 nM	82.48
sgRNA knockout: sgXBP1, 1000 nM	48.1
sgRNA knockout: sgXBP1, 10000 nM	30.3

CCOC(=O)[C@@]1(CCCCCCOc2ccc(Cl)cc2)CO1 [Etomoxir]
Settings	relative cell number
sgRNA knockout: sgATF3, 10 nM	87.1
sgRNA knockout: sgATF3, 100 nM	91.6
sgRNA knockout: sgATF3, 1000 nM	109
sgRNA knockout: sgATF3, 10000 nM	101
sgRNA knockout: sgATF4, 10 nM	102
sgRNA knockout: sgATF4, 100 nM	102.95
sgRNA knockout: sgATF4, 1000 nM	112
sgRNA knockout: sgATF4, 10000 nM	115
sgRNA knockout: sgATF6, 10 nM	82.8
sgRNA knockout: sgATF6, 100 nM	103
sgRNA knockout: sgATF6, 1000 nM	99.1
sgRNA knockout: sgATF6, 10000 nM	91.9
sgRNA knockout: sgATG7, 10 nM	82.2
sgRNA knockout: sgATG7, 100 nM	101
sgRNA knockout: sgATG7, 1000 nM	99.6
sgRNA knockout: sgATG7, 10000 nM	104
sgRNA knockout: sgERN1, 10 nM	98.4
sgRNA knockout: sgERN1, 100 nM	92.2
sgRNA knockout: sgERN1, 1000 nM	104
sgRNA knockout: sgERN1, 10000 nM	93
sgRNA knockout: sgHSF1, 10 nM	83.78
sgRNA knockout: sgHSF1, 100 nM	94.6
sgRNA knockout: sgHSF1, 1000 nM	103
sgRNA knockout: sgHSF1, 10000 nM	101
sgRNA knockout: sgHSF2, 10 nM	90.8
sgRNA knockout: sgHSF2, 100 nM	102
sgRNA knockout: sgHSF2, 1000 nM	90.8
sgRNA knockout: sgHSF2, 10000 nM	107
sgRNA knockout: sgKEAP1, 10 nM	85.6
sgRNA knockout: sgKEAP1, 100 nM	96.2
sgRNA knockout: sgKEAP1, 1000 nM	106
sgRNA knockout: sgKEAP1, 10000 nM	95.7
sgRNA knockout: sgNFE2L2, 10 nM	105
sgRNA knockout: sgNFE2L2, 100 nM	91
sgRNA knockout: sgNFE2L2, 1000 nM	106
sgRNA knockout: sgNFE2L2, 10000 nM	89.3
sgRNA knockout: sgSLC35F2, 10 nM	95.1
sgRNA knockout: sgSLC35F2, 100 nM	93.6
sgRNA knockout: sgSLC35F2, 1000 nM	99.1
sgRNA knockout: sgSLC35F2, 10000 nM	95
sgRNA knockout: sgXBP1, 10 nM	95.02
sgRNA knockout: sgXBP1, 100 nM	91.33
sgRNA knockout: sgXBP1, 1000 nM	107
sgRNA knockout: sgXBP1, 10000 nM	100
